Reference: the supplement of paper PMC10849652
The other results are listed elsewhere or left out.

By UniProt entry, the sequences of proteins in these tests, tags left out. Where a name states a change or a piece, a line headed by the entry shows the natural chain unless it says otherwise.
UniProt Q3KRA9: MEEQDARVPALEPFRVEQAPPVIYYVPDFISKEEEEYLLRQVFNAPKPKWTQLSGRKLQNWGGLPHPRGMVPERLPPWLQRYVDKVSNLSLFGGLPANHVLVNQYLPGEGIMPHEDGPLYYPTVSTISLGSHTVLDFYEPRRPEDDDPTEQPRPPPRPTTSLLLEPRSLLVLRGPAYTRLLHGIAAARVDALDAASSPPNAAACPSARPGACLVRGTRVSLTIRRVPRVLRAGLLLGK
UniProt Q9UM13, whole entry, looked up: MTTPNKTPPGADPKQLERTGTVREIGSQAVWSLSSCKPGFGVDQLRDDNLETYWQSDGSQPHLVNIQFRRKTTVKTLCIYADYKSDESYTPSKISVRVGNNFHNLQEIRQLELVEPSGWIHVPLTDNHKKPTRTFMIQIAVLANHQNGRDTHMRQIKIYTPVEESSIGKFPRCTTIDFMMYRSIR
UniProt Q96HN2, whole entry, looked up: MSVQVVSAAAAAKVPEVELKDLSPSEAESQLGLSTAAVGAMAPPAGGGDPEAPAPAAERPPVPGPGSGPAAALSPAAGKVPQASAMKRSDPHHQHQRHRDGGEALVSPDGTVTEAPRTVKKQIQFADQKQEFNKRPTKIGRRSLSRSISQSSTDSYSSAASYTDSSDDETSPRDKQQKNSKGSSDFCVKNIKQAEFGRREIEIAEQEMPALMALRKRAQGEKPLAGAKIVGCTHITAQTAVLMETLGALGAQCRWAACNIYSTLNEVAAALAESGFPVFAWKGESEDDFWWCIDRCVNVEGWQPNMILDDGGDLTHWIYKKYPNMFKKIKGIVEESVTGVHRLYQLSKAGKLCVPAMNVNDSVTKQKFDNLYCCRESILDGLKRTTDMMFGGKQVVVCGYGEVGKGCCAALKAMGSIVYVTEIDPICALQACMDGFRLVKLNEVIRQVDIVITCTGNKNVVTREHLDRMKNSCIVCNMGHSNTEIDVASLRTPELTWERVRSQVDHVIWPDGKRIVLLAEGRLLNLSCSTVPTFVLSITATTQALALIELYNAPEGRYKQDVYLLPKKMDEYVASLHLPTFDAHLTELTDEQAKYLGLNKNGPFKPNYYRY
UniProt O15120: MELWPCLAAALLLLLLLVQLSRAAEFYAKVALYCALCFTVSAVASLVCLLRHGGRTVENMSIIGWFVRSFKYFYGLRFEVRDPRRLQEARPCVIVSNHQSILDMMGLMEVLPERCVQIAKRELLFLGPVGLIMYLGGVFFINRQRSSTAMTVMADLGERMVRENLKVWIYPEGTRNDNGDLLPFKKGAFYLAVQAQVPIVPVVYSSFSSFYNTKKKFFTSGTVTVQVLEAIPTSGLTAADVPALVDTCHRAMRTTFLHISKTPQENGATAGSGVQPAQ
UniProt Q96BJ3: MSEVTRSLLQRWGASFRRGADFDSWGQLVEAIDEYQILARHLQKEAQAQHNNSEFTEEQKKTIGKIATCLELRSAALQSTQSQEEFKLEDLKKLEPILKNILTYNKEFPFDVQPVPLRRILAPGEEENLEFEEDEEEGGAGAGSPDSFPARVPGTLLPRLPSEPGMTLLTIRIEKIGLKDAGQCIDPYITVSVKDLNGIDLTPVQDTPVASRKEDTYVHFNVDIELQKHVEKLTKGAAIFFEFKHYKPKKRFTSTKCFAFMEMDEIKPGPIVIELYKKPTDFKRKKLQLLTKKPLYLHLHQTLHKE
UniProt Q9NX46: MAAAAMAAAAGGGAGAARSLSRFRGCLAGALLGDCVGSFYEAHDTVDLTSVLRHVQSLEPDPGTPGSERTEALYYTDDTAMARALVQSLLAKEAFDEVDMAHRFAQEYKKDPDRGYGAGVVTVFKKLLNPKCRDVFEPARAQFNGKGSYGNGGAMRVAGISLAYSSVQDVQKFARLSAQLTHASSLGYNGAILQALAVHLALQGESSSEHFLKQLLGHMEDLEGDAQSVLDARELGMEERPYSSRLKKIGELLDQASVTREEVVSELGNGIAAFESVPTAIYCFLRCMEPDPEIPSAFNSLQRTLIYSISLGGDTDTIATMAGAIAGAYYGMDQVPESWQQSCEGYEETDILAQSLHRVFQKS
UniProt P05091: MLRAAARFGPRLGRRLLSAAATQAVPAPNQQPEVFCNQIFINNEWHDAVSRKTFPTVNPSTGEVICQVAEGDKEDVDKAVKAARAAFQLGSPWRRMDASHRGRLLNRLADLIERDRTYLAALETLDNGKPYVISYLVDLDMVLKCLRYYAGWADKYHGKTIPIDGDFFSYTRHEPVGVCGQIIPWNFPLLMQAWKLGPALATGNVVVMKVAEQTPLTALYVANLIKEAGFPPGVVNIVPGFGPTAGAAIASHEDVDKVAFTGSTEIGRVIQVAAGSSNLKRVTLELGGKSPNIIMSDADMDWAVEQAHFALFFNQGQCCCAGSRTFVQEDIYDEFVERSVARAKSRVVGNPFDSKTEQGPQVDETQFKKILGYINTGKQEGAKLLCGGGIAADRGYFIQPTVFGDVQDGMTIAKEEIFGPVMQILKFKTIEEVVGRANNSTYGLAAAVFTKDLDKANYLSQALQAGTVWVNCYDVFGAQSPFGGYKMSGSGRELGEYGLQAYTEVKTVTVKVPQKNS
UniProt Q92685: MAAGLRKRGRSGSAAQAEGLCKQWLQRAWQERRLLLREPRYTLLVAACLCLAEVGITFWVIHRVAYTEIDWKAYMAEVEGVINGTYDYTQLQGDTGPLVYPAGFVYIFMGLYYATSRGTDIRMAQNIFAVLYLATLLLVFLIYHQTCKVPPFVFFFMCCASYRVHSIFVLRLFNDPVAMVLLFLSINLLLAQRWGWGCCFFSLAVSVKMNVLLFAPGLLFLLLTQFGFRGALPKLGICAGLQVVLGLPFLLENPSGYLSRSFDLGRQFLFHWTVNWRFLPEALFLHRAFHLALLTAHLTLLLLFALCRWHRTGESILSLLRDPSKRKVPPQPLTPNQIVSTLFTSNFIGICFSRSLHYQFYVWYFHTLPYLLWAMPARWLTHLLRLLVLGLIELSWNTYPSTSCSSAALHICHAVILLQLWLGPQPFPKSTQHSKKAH
UniProt P55008: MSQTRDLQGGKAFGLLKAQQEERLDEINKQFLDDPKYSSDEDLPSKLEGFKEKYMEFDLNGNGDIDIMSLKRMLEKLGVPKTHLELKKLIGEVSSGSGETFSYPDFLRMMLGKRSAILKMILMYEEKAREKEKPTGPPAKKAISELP
UniProt Q9NP73: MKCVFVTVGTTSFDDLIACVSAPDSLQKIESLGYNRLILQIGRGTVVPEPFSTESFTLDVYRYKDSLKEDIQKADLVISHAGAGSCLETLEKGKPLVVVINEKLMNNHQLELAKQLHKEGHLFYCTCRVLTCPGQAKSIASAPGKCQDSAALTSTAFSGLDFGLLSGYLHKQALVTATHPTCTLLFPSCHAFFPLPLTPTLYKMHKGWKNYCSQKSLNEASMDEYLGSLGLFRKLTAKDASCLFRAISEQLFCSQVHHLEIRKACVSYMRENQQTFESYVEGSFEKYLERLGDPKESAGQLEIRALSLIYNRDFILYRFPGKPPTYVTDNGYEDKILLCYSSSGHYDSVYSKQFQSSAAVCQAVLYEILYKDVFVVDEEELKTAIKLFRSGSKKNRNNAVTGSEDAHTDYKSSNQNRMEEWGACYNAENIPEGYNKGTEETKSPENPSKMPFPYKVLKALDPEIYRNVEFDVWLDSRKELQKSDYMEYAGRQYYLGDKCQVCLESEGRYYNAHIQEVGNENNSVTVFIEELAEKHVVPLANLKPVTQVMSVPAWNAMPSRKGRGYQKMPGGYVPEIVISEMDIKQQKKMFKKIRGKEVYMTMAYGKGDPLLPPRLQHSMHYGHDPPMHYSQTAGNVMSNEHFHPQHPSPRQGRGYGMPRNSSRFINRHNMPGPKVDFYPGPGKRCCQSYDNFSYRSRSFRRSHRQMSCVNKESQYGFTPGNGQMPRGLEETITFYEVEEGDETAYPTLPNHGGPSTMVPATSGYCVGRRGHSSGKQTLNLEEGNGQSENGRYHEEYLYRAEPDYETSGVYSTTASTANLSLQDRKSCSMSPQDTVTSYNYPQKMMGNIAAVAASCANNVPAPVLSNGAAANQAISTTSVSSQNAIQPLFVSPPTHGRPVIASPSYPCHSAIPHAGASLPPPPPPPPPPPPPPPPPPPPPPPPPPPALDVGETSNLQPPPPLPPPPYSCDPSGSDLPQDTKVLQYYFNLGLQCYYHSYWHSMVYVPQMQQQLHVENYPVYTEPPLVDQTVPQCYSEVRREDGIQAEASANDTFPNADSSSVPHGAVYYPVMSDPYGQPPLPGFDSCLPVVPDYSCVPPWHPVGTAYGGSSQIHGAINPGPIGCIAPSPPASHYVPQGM
UniProt Q53H12: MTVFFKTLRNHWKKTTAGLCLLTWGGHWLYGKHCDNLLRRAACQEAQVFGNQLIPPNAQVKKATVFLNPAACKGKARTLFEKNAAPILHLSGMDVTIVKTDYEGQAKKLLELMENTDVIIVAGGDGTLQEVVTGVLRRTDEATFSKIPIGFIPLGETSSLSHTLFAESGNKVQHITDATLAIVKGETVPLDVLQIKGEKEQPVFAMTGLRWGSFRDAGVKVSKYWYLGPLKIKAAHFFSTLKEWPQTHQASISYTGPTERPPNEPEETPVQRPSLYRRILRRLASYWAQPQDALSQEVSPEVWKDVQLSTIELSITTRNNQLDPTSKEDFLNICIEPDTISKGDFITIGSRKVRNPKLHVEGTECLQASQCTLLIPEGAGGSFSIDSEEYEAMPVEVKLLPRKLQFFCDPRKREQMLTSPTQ
UniProt O94788: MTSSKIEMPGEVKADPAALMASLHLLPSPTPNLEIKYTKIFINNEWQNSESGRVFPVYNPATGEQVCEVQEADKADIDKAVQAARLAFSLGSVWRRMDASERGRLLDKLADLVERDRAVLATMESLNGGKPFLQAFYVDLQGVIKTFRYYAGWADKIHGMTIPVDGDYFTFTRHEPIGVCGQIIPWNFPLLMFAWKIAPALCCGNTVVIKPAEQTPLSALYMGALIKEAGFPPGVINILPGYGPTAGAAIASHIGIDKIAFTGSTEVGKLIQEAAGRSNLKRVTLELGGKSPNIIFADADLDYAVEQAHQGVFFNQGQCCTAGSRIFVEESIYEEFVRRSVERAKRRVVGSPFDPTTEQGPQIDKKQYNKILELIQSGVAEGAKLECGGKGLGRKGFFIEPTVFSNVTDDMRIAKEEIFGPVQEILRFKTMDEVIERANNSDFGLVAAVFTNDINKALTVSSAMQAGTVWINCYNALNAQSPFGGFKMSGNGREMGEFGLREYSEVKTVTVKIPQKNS
UniProt P30520: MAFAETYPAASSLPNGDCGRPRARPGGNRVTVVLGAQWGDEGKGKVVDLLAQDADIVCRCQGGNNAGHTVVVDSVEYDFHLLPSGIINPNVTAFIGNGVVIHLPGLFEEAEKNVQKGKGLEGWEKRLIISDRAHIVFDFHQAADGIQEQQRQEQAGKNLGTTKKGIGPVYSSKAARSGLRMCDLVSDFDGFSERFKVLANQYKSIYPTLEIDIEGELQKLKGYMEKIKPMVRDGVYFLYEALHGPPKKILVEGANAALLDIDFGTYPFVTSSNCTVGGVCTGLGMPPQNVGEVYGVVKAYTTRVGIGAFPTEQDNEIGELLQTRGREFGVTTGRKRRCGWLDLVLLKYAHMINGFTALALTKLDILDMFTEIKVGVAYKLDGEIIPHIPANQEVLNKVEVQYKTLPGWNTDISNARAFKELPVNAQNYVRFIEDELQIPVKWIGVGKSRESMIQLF
UniProt Q01432: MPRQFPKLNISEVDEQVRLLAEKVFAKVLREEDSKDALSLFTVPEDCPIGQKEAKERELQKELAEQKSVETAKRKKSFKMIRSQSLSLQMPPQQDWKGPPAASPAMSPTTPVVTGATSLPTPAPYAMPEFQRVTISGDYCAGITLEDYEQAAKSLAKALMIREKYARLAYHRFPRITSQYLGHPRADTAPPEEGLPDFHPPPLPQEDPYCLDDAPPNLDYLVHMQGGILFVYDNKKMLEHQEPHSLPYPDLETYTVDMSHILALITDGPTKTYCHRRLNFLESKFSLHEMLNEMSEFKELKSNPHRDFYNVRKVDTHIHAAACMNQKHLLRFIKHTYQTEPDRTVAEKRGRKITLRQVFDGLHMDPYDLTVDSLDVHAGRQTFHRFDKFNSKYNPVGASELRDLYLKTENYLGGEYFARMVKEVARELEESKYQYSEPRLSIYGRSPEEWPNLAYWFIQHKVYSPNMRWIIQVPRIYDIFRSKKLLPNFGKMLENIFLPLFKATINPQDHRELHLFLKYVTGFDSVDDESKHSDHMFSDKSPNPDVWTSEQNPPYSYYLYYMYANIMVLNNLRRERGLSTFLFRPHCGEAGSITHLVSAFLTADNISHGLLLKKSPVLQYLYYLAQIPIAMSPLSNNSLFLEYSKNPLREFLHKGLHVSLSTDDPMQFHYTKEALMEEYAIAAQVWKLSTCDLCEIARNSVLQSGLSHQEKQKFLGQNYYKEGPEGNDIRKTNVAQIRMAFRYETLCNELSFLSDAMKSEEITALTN
UniProt Q9Y3D8, whole entry, looked up: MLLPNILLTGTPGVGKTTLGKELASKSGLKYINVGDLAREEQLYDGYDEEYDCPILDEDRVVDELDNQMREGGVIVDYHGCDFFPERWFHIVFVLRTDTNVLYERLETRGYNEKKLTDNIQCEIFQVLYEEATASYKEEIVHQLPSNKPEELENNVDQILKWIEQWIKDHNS

Legend:
Assay in all cases: log2 fold change, soluble protein after heating vs DMSO (PISA); higher = thermal stabilisation; K562 cells, 10 uM, 30 min; active = over 0.2 and 3.5 SD of the protein, either way, in both replicates (recomputed)
erlotinib = compound: C#Cc1cccc(Nc2ncnc3cc(OCCOC)c(OCCOC)cc23)c1 [erlotinib]
Procedure, shortened: (§1)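 K562 cells (2×10^6 cells/mL) were treated with 10 μM compound for 30 min, and aliquots were heated for 3 min over 48°C-58°C. Pooled aliquots were extracted in PBS with 0.5% NP-40 at 4°C, and the supernatant after 21,000xg for 90 min was measured by TMTpro 16plex LC-MS/MS with channel sums equalised. Reported thermal stability, relative to control samples and from duplicates, is a log2 fold change.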

[1] = compound: C/C(=N\NC(=O)C1=CC(=CC=C1)S(=O)(=O)N2CCOCC2)/C3=C(C=CC(=C3)Cl)O
Procedure, shortened: as §1

[2] = compound: C1=CC(=C(C=C1Cl)C2=NC3=NC=CN=C3C(=N2)NC4=CC=NC=C4)F
Procedure, shortened: as §1

[3] = compound: C1=CC(=CC=C1C2=NC3=C(N2)C=C(C=C3)C(=O)N)OC4=CC=C(C=C4)Cl
Procedure, shortened: as §1

[4] = compound: C1=CC2=C(C=CC(=C2)/C=C\3/C(=O)NC(=NCC4=CC=CS4)S3)N=C1
Procedure, shortened: as §1

[5] = compound: C1=CC2=NC=CN=C2C=C1/C=C/3\C(=O)NC(=O)S3
Procedure, shortened: as §1

[6] = compound: C1=CC=C(C=C1)C2=NC(=C(N2)C3=CC=NC=C3)C4=CC(=C(C=C4)Cl)O
Procedure, shortened: as §1

[7] = compound: C1=CC=C2C(=C1)C3=NNC4=CC=CC(=C43)C2=O
Procedure, shortened: as §1

[8] = compound: C1CCN(C1)C(=O)NC2=CC=CC(=C2)NC3=NC=C(C(=N3)NCCC4=CN=CN4)Br
Procedure, shortened: as §1

[9] = compound: C1CN(CCC1(CC2=CC=C(C=C2)Cl)N)C3=NC=NC4=C3C=CN4
Procedure, shortened: as §1

Row | Target | log2 fold change (erlotinib) | log2 fold change [1] | log2 fold change [2] | log2 fold change [3] | log2 fold change [4] | log2 fold change [5] | log2 fold change [6] | log2 fold change [7] | log2 fold change [8] | log2 fold change [9]
1 | AKAP8L (UniProt Q9ULX6) | inactive: 0.001 | inactive: 0.085 | inactive: 0.074 | inactive: 0.026 | inactive: -0.006 | inactive: -0.058 | inactive: -0.054 | inactive: -0.027 | inactive: -0.053 | inactive: 0.031
2 | ALKBH6 isoform 2 (UniProt Q3KRA9) | inactive: -0.098 | inactive: 0.023 | inactive: -0.018 | inactive: 0.058 | inactive: 0.037 | inactive: 0.007 | inactive: -0.049 | inactive: -0.038 | inactive: -0.046 | inactive: 0.151
3 | ANAPC10 (UniProt Q9UM13) | inactive: -0.005 | inactive: 0.017 | inactive: -0.004 | inactive: -0.007 | inactive: 0.019 | inactive: 0.023 | inactive: 0.009 | inactive: 0.023 | inactive: -0.11 | inactive: -0.051
4 | AHCYL2 (UniProt Q96HN2) | inactive: 0.035 | inactive: -0.02 | inactive: 0.078 | inactive: -0.018 | inactive: 0.013 | inactive: 0.032 | inactive: -0.013 | inactive: 0.048 | inactive: 0.019 | inactive: 0.038
5 | ALDH4A1 (UniProt P30038) | inactive: 0.048 | inactive: 0.047 | inactive: 0.072 | inactive: -0.046 | inactive: 0.018 | inactive: 0.023 | inactive: 0.025 | inactive: 0.045 | inactive: -0.006 | inactive: 0.035
6 | AGPAT2 (UniProt O15120) | inactive: 0.056 | inactive: -0.086 | inactive: 0.032 | inactive: 0.038 | inactive: 0.258 | inactive: 0.078 | inactive: 0.011 | inactive: -0.002 | inactive: -0.243 | inactive: 0.015
7 | AIDA (UniProt Q96BJ3) | inactive: 0.03 | inactive: 0.062 | inactive: 0.102 | inactive: -0.031 | inactive: -0.009 | inactive: -0.001 | inactive: 0.013 | inactive: -0.02 | inactive: -0.056 | inactive: 0.069
8 | ADPRHL2 (UniProt Q9NX46) | inactive: 0.03 | inactive: 0.024 | inactive: 0.122 | inactive: 0.048 | inactive: 0.043 | inactive: 0.006 | inactive: 0.019 | inactive: 0.049 | inactive: 0.003 | inactive: -0.165
9 | ALDH2 (UniProt P05091) | inactive: -0.009 | inactive: 0.121 | inactive: 0.039 | inactive: 0.021 | inactive: 0.096 | inactive: 0.022 | inactive: -0.019 | inactive: 0.097 | inactive: -0.041 | inactive: 0.02
10 | ALG3 (UniProt Q92685) | inactive: 0.024 | inactive: 0.127 | inactive: 0.07 | inactive: -0.081 | inactive: 0.03 | inactive: -0.002 | inactive: 0.022 | inactive: -0.011 | inactive: -0.133 | inactive: 0.103
11 | AIMP2 (UniProt Q13155) | inactive: -0.087 | inactive: -0.091 | inactive: -0.364 | inactive: 0.02 | inactive: -0.01 | inactive: 0.001 | inactive: -0.027 | inactive: 0.026 | inactive: 0.069 | inactive: -0.259
12 | ADPGK (UniProt Q9BRR6) | inactive: 0.024 | inactive: 0 | inactive: -0.08 | inactive: -0.024 | inactive: 0.054 | inactive: 0.041 | inactive: 0.03 | inactive: -0.066 | inactive: -0.021 | inactive: 0.052
13 | AIF1 (UniProt P55008) | inactive: 0.155 | inactive: -0.02 | inactive: 0.09 | inactive: 0.08 | inactive: -0.051 | inactive: 0.093 | inactive: 0.058 | inactive: -0.126 | – | –
14 | AHNAK (UniProt Q09666) | inactive: -0.022 | inactive: -0.037 | inactive: -0.029 | inactive: 0 | inactive: -0.014 | inactive: 0.034 | inactive: -0.046 | inactive: -0.088 | inactive: -0.003 | inactive: 0.02
15 | AKT2 (UniProt P31751) | inactive: 0.014 | inactive: 0.096 | inactive: 0.094 | inactive: 0.027 | inactive: 0.068 | inactive: -0.023 | inactive: 0.019 | inactive: 0.028 | inactive: -0.068 | inactive: 0.144
16 | ALG13 (UniProt Q9NP73) | inactive: -0.038 | inactive: 0.101 | inactive: 0.073 | inactive: 0.025 | inactive: 0.101 | inactive: 0.011 | inactive: 0.001 | inactive: 0.014 | inactive: -0.022 | inactive: -0.032
17 | AGK (UniProt Q53H12) | inactive: 0.029 | inactive: 0.007 | inactive: 0.078 | inactive: 0.006 | inactive: 0.009 | inactive: -0.025 | inactive: -0.003 | inactive: -0.009 | inactive: -0.014 | inactive: 0.049
18 | AGRN (UniProt O00468) | inactive: 0.064 | inactive: -0.013 | inactive: -0.039 | inactive: -0.125 | inactive: 0.071 | inactive: -0.048 | active: 0.366 | inactive: 0.024 | inactive: -0.091 | inactive: 0.05
19 | ALDH1A2 (UniProt O94788) | inactive: 0.013 | inactive: 0.032 | inactive: 0.091 | inactive: -0.003 | inactive: 0.032 | inactive: -0.016 | inactive: 0.051 | inactive: 0.017 | inactive: -0.03 | inactive: 0.019
20 | ADSS2 (UniProt P30520) | inactive: -0.016 | inactive: 0.03 | inactive: 0.021 | inactive: 0.015 | inactive: 0.046 | inactive: 0.008 | inactive: -0.029 | inactive: 0.019 | inactive: -0.006 | inactive: 0.031
21 | AMPD3 isoform 4 (UniProt Q01432) | inactive: 0.062 | inactive: 0.03 | inactive: 0.056 | inactive: -0.005 | inactive: -0.037 | inactive: 0.035 | inactive: 0.008 | inactive: -0.028 | inactive: 0.027 | inactive: 0.034
22 | AK6 (UniProt Q9Y3D8) | inactive: 0.105 | inactive: 0.108 | inactive: 0.007 | inactive: -0.157 | inactive: 0.194 | inactive: 0.025 | inactive: 0.046 | inactive: -0.027 | inactive: -0.041 | inactive: -0.085
23 | AGO3 (UniProt Q9H9G7) | inactive: -0.061 | inactive: -0.002 | inactive: -0.072 | inactive: -0.053 | inactive: 0.078 | inactive: 0.002 | inactive: -0.102 | inactive: -0.161 | inactive: -0.094 | inactive: 0.031
24 | ALG5 (UniProt Q9Y673) | inactive: -0.008 | inactive: 0.014 | inactive: 0.071 | inactive: 0.008 | inactive: 0.023 | inactive: 0.003 | inactive: 0.009 | inactive: 0.048 | inactive: -0.026 | inactive: -0.007
25 | ADO (UniProt Q96SZ5) | inactive: 0.04 | inactive: -0.042 | inactive: 0.08 | inactive: 0.008 | inactive: 0.044 | inactive: 0.012 | inactive: -0.001 | inactive: 0.055 | inactive: 0.005 | inactive: 0.061
26 | ALAD isoform 2 (UniProt P13716) | inactive: -0.023 | inactive: 0.06 | inactive: 0.026 | inactive: 0.037 | inactive: -0.03 | inactive: 0.004 | inactive: 0.034 | inactive: 0.052 | inactive: -0.017 | inactive: 0.015
27 | AKR1A1 (UniProt P14550) | inactive: -0.01 | inactive: 0.02 | inactive: 0.056 | inactive: -0.013 | inactive: -0.005 | inactive: 0.01 | inactive: -0.017 | inactive: 0.01 | inactive: 0.016 | inactive: 0.038
28 | AHCYL1 (UniProt O43865) | inactive: 0.083 | inactive: -0.032 | inactive: -0.008 | inactive: -0.042 | inactive: 0.001 | inactive: 0.086 | inactive: 0.09 | inactive: 0.118 | inactive: 0.077 | inactive: 0.104

A different layout for part of the listing above:
Row	Target	log2 fold change (erlotinib)	log2 fold change [1]	log2 fold change [2]	log2 fold change [3]	log2 fold change [4]	log2 fold change [5]	log2 fold change [6]	log2 fold change [7]	log2 fold change [8]	log2 fold change [9]
4	AHCYL2 (UniProt Q96HN2)	inactive: 0.035	inactive: -0.02	inactive: 0.078	inactive: -0.018	inactive: 0.013	inactive: 0.032	inactive: -0.013	inactive: 0.048	inactive: 0.019	inactive: 0.038
8	ADPRHL2 (UniProt Q9NX46)	inactive: 0.03	inactive: 0.024	inactive: 0.122	inactive: 0.048	inactive: 0.043	inactive: 0.006	inactive: 0.019	inactive: 0.049	inactive: 0.003	inactive: -0.165
9	ALDH2 (UniProt P05091)	inactive: -0.009	inactive: 0.121	inactive: 0.039	inactive: 0.021	inactive: 0.096	inactive: 0.022	inactive: -0.019	inactive: 0.097	inactive: -0.041	inactive: 0.02
18	AGRN (UniProt O00468)	inactive: 0.064	inactive: -0.013	inactive: -0.039	inactive: -0.125	inactive: 0.071	inactive: -0.048	active: 0.366	inactive: 0.024	inactive: -0.091	inactive: 0.05
20	ADSS2 (UniProt P30520)	inactive: -0.016	inactive: 0.03	inactive: 0.021	inactive: 0.015	inactive: 0.046	inactive: 0.008	inactive: -0.029	inactive: 0.019	inactive: -0.006	inactive: 0.031
28	AHCYL1 (UniProt O43865)	inactive: 0.083	inactive: -0.032	inactive: -0.008	inactive: -0.042	inactive: 0.001	inactive: 0.086	inactive: 0.09	inactive: 0.118	inactive: 0.077	inactive: 0.104
